# Data as given in PubChem BioAssay AID504774 (Drosophila RNAi Screening Center, 2011).
# Assay: 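Genes required for cells to withstand methyl methanesulphonate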 (primary screen)
# System: Drosophila Kc167 cells
# Reagents: long dsRNA against Drosophila genes, about 0.25 µg dsRNA per well
# Time to read-out: about 6 days: 3 days knock-down, then 3 days with or without MMS
# Challenge: methyl methanesulphonate 0.004% (w/v) for 3 days after knock-down
# Measurement: 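ATP-dependent luminescence as a measure of live cells in MMS-exposed wells, quantile normalised within each plate, with replicate values also given as a mean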
# Scale: mean viability with MMS and viability with MMS: higher = more surviving cells after MMS
# The screen tested about 23,000 reagents; shown is an unselected part of those with a known target gene and a result. 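Values are quantile-normalised luminescence on an arbitrary scale; higher means more cells surviving MMS.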 Reagents against one gene are numbered here. Names joined by + are all predicted targets of the reagent. No sequences are given here.
gene,reagent no.,mean viability with MMS,"viability with MMS, replicate 1","viability with MMS, replicate 2"
wb (wing blister),1,2.79e6,3.48e6,3.48e6
wb (wing blister),2,3.61e6,4.13e6,4.05e6
wb (wing blister),3,2.86e6,2.91e6,3.36e6
kst (karst),1,3.66e6,4.18e6,4.14e6
CG15873,1,3.56e6,4.02e6,4.06e6
CG2961,1,3.49e6,3.99e6,3.92e6
CG14502,1,3.53e6,4.01e6,3.99e6
Ice2 (Interacts with the C terminus of ELL 2),1,3.43e6,3.82e6,3.97e6
CG12991,1,3.58e6,4.11e6,3.99e6
ana (anachronism),1,3.42e6,3.87e6,3.83e6
CG43773,1,3.35e6,3.61e6,3.91e6
CG43773,2,3.52e6,3.85e6,4.11e6
CG9294,1,3.56e6,4.10e6,3.97e6
CG6425,1,3.64e6,4.17e6,4.05e6
CG32137,1,3.28e6,3.68e6,3.70e6
CG32137,2,3.20e6,3.62e6,3.52e6
CG42710,1,3.46e6,3.98e6,3.87e6
CG7342,1,3.60e6,4.13e6,4.02e6
alphaTub67C (alpha-Tubulin at 67C),1,3.39e6,3.76e6,3.87e6
lbe (ladybird early),1,3.64e6,4.18e6,4.06e6
CG11583,1,3.45e6,3.90e6,3.93e6
CG13531,1,3.46e6,3.96e6,3.86e6
sle + CG12592,1,3.52e6,4.17e6,3.85e6
Golgin104 (Golgin 104),1,3.32e6,3.76e6,3.72e6
Fer1HCH (Ferritin 1 heavy chain homologue),1,3.59e6,4.04e6,4.10e6
CG11858,1,3.69e6,4.02e6,4.09e6
Stt3A,1,3.51e6,4.02e6,3.92e6
Tbp (TATA binding protein),1,3.43e6,3.77e6,3.99e6
Tbp (TATA binding protein),2,2.87e6,3.25e6,3.03e6
Mys45A (Mystery 45A),1,3.07e6,3.62e6,3.65e6
Rift (Riboflavin transporter),1,3.59e6,4.12e6,4.02e6
CG7341,1,3.63e6,4.03e6,4.18e6
fan (farinelli),1,3.51e6,3.97e6,4.00e6
RpS14b (Ribosomal protein S14b),1,2.86e6,3.37e6,3.51e6
cib (ciboulot),1,3.63e6,4.19e6,4.04e6
CG15262,1,3.48e6,4.08e6,3.82e6
CG10063,1,3.47e6,3.97e6,3.90e6
pyx (pyrexia),1,3.60e6,4.13e6,4.00e6
pyx (pyrexia),2,3.31e6,4.00e6,3.55e6
CG18622,1,3.64e6,4.13e6,4.14e6
MFS18 (Major Facilitator Superfamily Transporter 18),1,3.70e6,4.20e6,4.24e6
CG10481,1,3.45e6,3.99e6,3.82e6
Cnot4 (CCR4-NOT transcription complex subunit 4),1,3.58e6,4.04e6,4.08e6
Cnot4 (CCR4-NOT transcription complex subunit 4),2,3.58e6,4.02e6,4.11e6
CG6204,1,3.60e6,4.12e6,4.03e6

The list goes on (2 carried over from the part before).
gene,reagent no.,mean viability with MMS,"viability with MMS, replicate 1","viability with MMS, replicate 2"
Cnot4 (CCR4-NOT transcription complex subunit 4),2,3.58e6,4.02e6,4.11e6
CG6204,1,3.60e6,4.12e6,4.03e6
CG4101,1,3.57e6,4.05e6,4.06e6
Mctp (Multiple C2 domain and transmembrane region protein),1,3.44e6,4.01e6,3.74e6
Mctp (Multiple C2 domain and transmembrane region protein),2,3.50e6,3.94e6,4.02e6
Pkd2 (Polycystic kidney disease 2),1,3.81e6,4.25e6,4.22e6
CG12811,1,3.51e6,4.01e6,3.97e6
Tep4 (Thioester-containing protein 4),1,3.44e6,3.94e6,3.85e6
Coa8 (Cytochrome c oxidase assembly factor 8),1,3.59e6,4.15e6,4.01e6
emb (embargoed),1,3.28e6,3.89e6,3.40e6
AhcyL2 (Adenosylhomocysteinase like 2),1,3.68e6,4.21e6,4.15e6
HDAC1 (Histone deacetylase 1),1,3.40e6,3.88e6,3.85e6
ClpP (Caseinolytic protease proteolytic subunit),1,3.42e6,3.72e6,4.00e6
dpn (deadpan),1,3.48e6,3.98e6,3.94e6
koi (klaroid),1,3.61e6,4.23e6,3.90e6
grk (gurken),1,3.44e6,4.07e6,3.64e6
Slmap (Sarcolemma associated protein),1,3.54e6,4.05e6,3.98e6
Dnaaf6 (Dynein axonemal assembly factor 6),1,3.72e6,4.17e6,4.19e6
Ir31a (Ionotropic receptor 31a),1,3.45e6,3.93e6,3.94e6
CG32189,1,3.67e6,4.38e6,3.91e6
AMPdeam (AMP deaminase),1,3.68e6,4.17e6,4.08e6
AMPdeam (AMP deaminase),2,3.79e6,4.72e6,4.31e6
AMPdeam (AMP deaminase),3,3.68e6,4.21e6,4.07e6
AMPdeam (AMP deaminase),4,3.53e6,4.01e6,4.00e6
CG42568 + DnaJ-60,1,3.58e6,4.04e6,4.08e6
CG42568 + DnaJ-60,2,3.48e6,3.82e6,3.97e6
